Drawing on patent US7879861B2, “Combi-molecules having EGFR and DNA targeting properties” (priority 2005, dated 2011), this text covers sub-cellular localization for one compound.

The subject of this series is EGFR transfected cells and cell lines with different EGFR levels. In words: Internalization and sub-cellular distribution by fluorescence (flow cytometry, UV microscopy). The note with it: 25 μM, 30 min. Type of series: cell-based.

`ClCCNc1ccc2ncnc(Nc3cccc(Br)c3)c2c1` [ZR2002]: the sub-cellular localization result was “preferentially localized in the perinuclear region”.
